Results are given in words; binding and its absence hold for the method and conditions named. Some binding calls cover weakened binding; strength is not graded here.
Experiments:
[1] = biological target: T1, soluble CCR6 (sCCR6) in human serum (human) (UniProt P51684); experiment: blocking of sCCR6 detection by ELISA with CCL20 (100 ng/ml, 1 h), three sera of healthy volunteers
T1 sequence (looked up): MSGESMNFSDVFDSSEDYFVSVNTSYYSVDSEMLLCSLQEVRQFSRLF

By UniProt entry, the sequences of proteins in these tests, tags left out. Where a name states a change or a piece, a line headed by the entry shows the natural chain unless it says otherwise.
UniProt P78556: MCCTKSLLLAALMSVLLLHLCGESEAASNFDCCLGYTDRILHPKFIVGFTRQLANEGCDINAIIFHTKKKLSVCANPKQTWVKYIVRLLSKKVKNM

[2] = biological target: T1, soluble CCR6 (sCCR6) in human serum (human); experiment: sera preincubated with 100 ng/ml CCL20, then sandwich CCR6 ELISA
[3] = biological target: T1, soluble CCR6 (sCCR6) in human serum (human); experiment: blocking of sCCR6 detection in sandwich CCR6 ELISA
[4] = biological target: T1, soluble CCR6 (sCCR6) in human serum (human); experiment: sera preincubated with 100 ng/ml CCL18, then sandwich CCR6 ELISA
[5] = biological target: T1, soluble CCR6 (sCCR6) in human serum (human); experiment: blocking of sCCR6 detection by ELISA with CCL18 (100 ng/ml, 1 h), three sera of healthy volunteers

Measured: binding

CCL20 (from UniProt P78556 27-96) (ligand)
binds: [1] | [2] | [3]

B1: human recombinant CCL18 (ligand)
chain: AQVGTNKELCCLVYTSWQIPQKFIVDYSETSPQCPKPGVILLTKRGRQICADPNKKWVQKYISDLKLNA
binds: [4] | [3] | [5]

— patent publication US20130109629A1
